Assay results as given in PMC6525239, “Hexameric NuMA:LGN structures promote multivalent interactions required for planar epithelial divisions” (Nature Communications, 2019).
Results are given in words; binding and its absence hold for the method and conditions named. Binding can be weak; no strength is given. Values belong to the binder of their own block, whether it stands above or below them.

How the values were obtained:
[1] = target: T1, LGN^1–409 (TPR domain of LGN) (human); assay: SEC; analytical SEC, Superdex-200 Increase 3.2/300; LGN and NuMA variants mixed in equimolar amounts (20 μM; LGN^TPR:NuMA^PEPT 1:2); 20 mM Tris-HCl pH 8.0, 0.150 M NaCl, 5% glycerol, 1 mM DTT; fractions checked by SDS-PAGE; both purified
T1 sequence (P81274 whole entry, looked up): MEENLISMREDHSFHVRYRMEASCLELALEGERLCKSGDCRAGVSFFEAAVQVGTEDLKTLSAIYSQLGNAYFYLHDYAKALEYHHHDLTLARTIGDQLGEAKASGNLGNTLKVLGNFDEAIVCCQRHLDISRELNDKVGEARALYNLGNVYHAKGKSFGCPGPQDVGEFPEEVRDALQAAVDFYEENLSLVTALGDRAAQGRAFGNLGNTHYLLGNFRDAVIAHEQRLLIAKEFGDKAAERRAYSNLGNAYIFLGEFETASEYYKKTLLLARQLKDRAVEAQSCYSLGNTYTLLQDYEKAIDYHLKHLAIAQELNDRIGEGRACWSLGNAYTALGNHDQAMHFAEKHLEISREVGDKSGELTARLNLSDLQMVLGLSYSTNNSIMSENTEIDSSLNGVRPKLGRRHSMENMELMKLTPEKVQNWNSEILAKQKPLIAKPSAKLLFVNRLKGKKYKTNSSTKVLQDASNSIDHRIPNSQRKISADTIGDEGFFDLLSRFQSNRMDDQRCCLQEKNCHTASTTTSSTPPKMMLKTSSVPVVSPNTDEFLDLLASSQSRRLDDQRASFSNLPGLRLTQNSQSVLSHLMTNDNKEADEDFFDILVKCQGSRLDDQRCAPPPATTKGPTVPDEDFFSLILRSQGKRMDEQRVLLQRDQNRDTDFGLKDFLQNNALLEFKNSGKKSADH

[2] = target: T1, LGN^1–409 (TPR domain of LGN) (human); assay: SEC-MALS; static light scattering (SLS) on a Viscotek GPCmax/TDA with two TSKgel G3000PWxl columns in series; 75 μl of purified sample at about 1.5–2 mg/ml; both purified
[3] = target: LGN^TPR-ΔOLIGO (LGN^13–350) (human); assay: SEC; Superose-6 column; LGN^TPR or LGN^TPR-ΔOLIGO combined with NuMA-chimera in a 1:1.2 molar ratio; both purified
[4] = target: T1, LGN^1–409 (TPR domain of LGN) (human); assay: as above
LGN^7–367 (human) = target: T2, LGN^7–367 (human); assay: crystal structure; LGN^7–367:NuMA^LGNBD complex at 14 mg/ml with 20 mM TCEP; 10% PEG3350, 0.05 M Bis-Tris propane pH 7.5, 0.1 M Na-formate or Na-acetate, 20 °C; 4.3 Å, eleven datasets merged; both purified
T2 sequence (P81274 whole entry, looked up): T1 sequence (P81274 whole entry, looked up)

- binding [1]: binds
B3: NuMA^1877–1928 (domain or fragment, UniProt Q14980 1877-1928)
chain: RPTTRSSARRSQAGVSSGAPPGRNSFYMGTCQDEPEQLDDWNRIAELQQRNR

- binding [1]: binds
B4: NuMA^LGNBD-Δ1881–1897 (domain or fragment, UniProt Q14980 1861-1880; Q14980 1898-1928)
chain: GSPDYGNSALLSLPGYRPTTTGSGRNSFYMGTCQDEPEQLDDWNRIAELQQRNR

Second part, the binder before the results:

B1: NuMA^1821–2001 (domain or fragment, UniProt Q14980 1821-2001)
chain: KKLDVEEPDSANSSFYSTRSAPASQASLRATSSTQSLARLGSPDYGNSALLSLPGYRPTTRSSARRSQAGVSSGAPPGRNSFYMGTCQDEPEQLDDWNRIAELQQRNRVCPPHLKTCYPLESRPSLSLGTITDEEMKTGDPQETLRRASMQPIQIAEGTGITTRQQRKRVSLEPHQGPGTP
- binding [1]: binds

B2: NuMA^1821–1928 (domain or fragment, UniProt Q14980 1821-1928)
chain: KKLDVEEPDSANSSFYSTRSAPASQASLRATSSTQSLARLGSPDYGNSALLSLPGYRPTTRSSARRSQAGVSSGAPPGRNSFYMGTCQDEPEQLDDWNRIAELQQRNR
- binding [2]: binds

B5: NuMA chimera (NuMA 1592–1694 joined to NuMA 1821–2001 by eight Thr-Gly-Ser repeats) (domain or fragment, human)
chain: QLNELQAQLSQKEQAAEHYKLQMEKAKTHYDAKKQQNQELQEQLRSLEQLQKENKELRAEAERLGHELQQAGLKTKEAEQTCRHLTAQVRSLEAQVAHADQQLTGSTGSTGSTGSTGSTGSTGSTGSKKLDVEEPDSANSSFYSTRSAPASQASLRATSSTQSLARLGSPDYGNSALLSLPGYRPTTRSSARRSQAGVSSGAPPGRNSFYMGTCQDEPEQLDDWNRIAELQQRNRVCPPHLKTCYPLESRPSLSLGTITDEEMKTGDPQETLRRASMQPIQIAEGTGITTRQQRKRVSLEPHQGPGTP
notes: NuMA, human, residues 1592-1694 (dimerizing coiled-coil); also called chimeric NuMA construct; source: E. coli BL21 Rosetta, purified (Ni HiTrap chelating, PreScission cleavage, Resource-Q, Superose-6)
- binding [2]: binds
- binding [3]: binds
- binding [4]: binds

B6: NuMA^1861–1928 (domain or fragment, UniProt Q14980 1861-1928)
chain: GSPDYGNSALLSLPGYRPTTRSSARRSQAGVSSGAPPGRNSFYMGTCQDEPEQLDDWNRIAELQQRNR
- binding (LGN^7–367 (human)): binds
- binding [1]: binds
